The target in test [1] is Runt-related transcription factor 2 (RUNX2), endogenous (mouse (endogenous in BMSCs)) (UniProt Q08775). Description: co-IP; endogenous proteins; lysate of BMSCs after 4 days of osteoblastic differentiation (text: C3H10T1/2 cells); anti-Thoc6 or anti-RUNX2 antibody, IgG as control, on protein A/G magnetic beads, 4 °C overnight; lysis buffer 20 mmol/L Tris-HCl pH 7.4, 150 mmol/L NaCl, 1 mmol/L EDTA, 1% Triton-X100; western blot. (A western blot detects proteins with antibodies after separation by electrophoresis.)

By UniProt entry, the sequences of proteins in these tests, tags left out. Where a name states a change or a piece, a line headed by the entry shows the natural chain unless it says otherwise.
UniProt Q08775: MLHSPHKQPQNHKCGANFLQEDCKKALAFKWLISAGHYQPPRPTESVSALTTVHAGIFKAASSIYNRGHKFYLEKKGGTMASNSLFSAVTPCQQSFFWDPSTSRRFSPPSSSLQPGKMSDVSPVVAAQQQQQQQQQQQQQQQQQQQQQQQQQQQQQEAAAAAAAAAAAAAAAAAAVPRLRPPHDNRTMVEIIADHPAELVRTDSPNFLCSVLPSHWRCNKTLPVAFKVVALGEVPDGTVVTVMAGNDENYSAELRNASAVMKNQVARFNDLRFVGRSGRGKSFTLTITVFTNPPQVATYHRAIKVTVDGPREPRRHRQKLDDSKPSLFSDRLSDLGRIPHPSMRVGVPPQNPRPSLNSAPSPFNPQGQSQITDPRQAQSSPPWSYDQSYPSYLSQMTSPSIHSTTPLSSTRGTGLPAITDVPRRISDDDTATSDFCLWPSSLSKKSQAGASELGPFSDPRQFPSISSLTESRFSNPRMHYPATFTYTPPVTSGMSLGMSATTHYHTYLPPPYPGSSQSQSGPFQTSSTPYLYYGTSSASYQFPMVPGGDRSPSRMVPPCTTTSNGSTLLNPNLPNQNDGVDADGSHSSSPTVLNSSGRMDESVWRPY

The target of test [2] is wild-type (WT) FLAG-tagged RUNX2. Description: co-IP; C3H10T1/2 cells co-transfected with Thoc6 and WT FLAG-Runx2 or FLAG-tagged N-terminal deletion mutants, 48 h; whole cell extracts immunoprecipitated with FLAG or Thoc6 antibody, western blot with Thoc6 or FLAG antibody.
For test [3], the target named is FLAG-tagged RUNX2 N-terminal deletion mutant ΔRUNT. The test is described as above.
For test [4], the target named is FLAG-tagged RUNX2 N-terminal deletion mutant ΔAD. The description is as above.
The target of test [5] is FLAG-tagged RUNX2 N-terminal deletion mutant ΔNLS. The test is described as above.

Results are given in words; binding and its absence hold for the method and conditions named. In cells and extracts the contact can be indirect. For some assays here: A result given as binding can be weak or reduced; the word gives no strength.

B1: Thoc6, endogenous (protein, UniProt Q5U4D9 1-341)
chain: MEHAAPLAVPLGQAEVFQALQRLHMTIFSQSVSPCGKFLAAGNNYGQIAIFSLSAALSSEAKEESKKPVVVFHAHDGPVYSMVSTDRHLLSAGDGEVKGWLWAEILKKGCKELWRRQPPYRTSLEVPEINALLLVPKENSLILAGGDCQLHSMDLETGAFTRALRGHTDYIHCLALRERSPEVLSGGEDGAVRLWDLRIAKEVQTIEVYKHEECSRPHNGRWIGCLATDSDWMVCGGGPALTLWHLRSSTPTTVFPIRAPQKHVTFYQDLILSAGQGCCVNHWQLSGELKAQVPGSSPGLLSLSLNQQPAAPECKVLTASGNSCRVDVFTNLGYRAFSLSF
Take B1: the binding result in test [1] is “binds”.

B2: Thoc6 expressed from a transfected plasmid (protein, UniProt Q5U4D9 1-341)
chain: MEHAAPLAVPLGQAEVFQALQRLHMTIFSQSVSPCGKFLAAGNNYGQIAIFSLSAALSSEAKEESKKPVVVFHAHDGPVYSMVSTDRHLLSAGDGEVKGWLWAEILKKGCKELWRRQPPYRTSLEVPEINALLLVPKENSLILAGGDCQLHSMDLETGAFTRALRGHTDYIHCLALRERSPEVLSGGEDGAVRLWDLRIAKEVQTIEVYKHEECSRPHNGRWIGCLATDSDWMVCGGGPALTLWHLRSSTPTTVFPIRAPQKHVTFYQDLILSAGQGCCVNHWQLSGELKAQVPGSSPGLLSLSLNQQPAAPECKVLTASGNSCRVDVFTNLGYRAFSLSF
As to B2, the binding entry is listed as “binds” in test [2], “no binding” in test [3], “binds” in test [4] and “no binding” in test [5].

The record behind these values is paper PMC11782663.
